The values that follow come from paper PMC4969574 (The EMBO Journal, 2016).

Experiment [1] concerns the target T1, His6-TssA1 produced in P. aeruginosa (P. aeruginosa), Q9I750.
T1 chain: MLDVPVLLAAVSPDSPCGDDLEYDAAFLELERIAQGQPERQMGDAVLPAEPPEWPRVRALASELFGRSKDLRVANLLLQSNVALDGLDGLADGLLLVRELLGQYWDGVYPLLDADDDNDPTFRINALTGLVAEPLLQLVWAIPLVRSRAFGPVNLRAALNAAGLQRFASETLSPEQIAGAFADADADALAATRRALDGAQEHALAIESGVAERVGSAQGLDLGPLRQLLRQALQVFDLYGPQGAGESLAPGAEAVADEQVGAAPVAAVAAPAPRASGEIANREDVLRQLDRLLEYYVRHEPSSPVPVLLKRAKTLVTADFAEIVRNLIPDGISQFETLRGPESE
As to the kind of experiment: affinity purification with mass spectrometry; His6-TssA1 produced in the P. aeruginosa tssA1 mutant; soluble fraction on Ni-NTA, 25 mM Tris-HCl pH 7.5, 150 mM NaCl, eluted with 300 mM imidazole; LC-MS/MSe; control: strain with empty pBBR vector. As to conditions: remark: other sources report otherwise.

Experiment [2] deals with T2, His6-TssA1 produced in P. aeruginosa (P. aeruginosa) (UniProt Q9I750).
T2 sequence: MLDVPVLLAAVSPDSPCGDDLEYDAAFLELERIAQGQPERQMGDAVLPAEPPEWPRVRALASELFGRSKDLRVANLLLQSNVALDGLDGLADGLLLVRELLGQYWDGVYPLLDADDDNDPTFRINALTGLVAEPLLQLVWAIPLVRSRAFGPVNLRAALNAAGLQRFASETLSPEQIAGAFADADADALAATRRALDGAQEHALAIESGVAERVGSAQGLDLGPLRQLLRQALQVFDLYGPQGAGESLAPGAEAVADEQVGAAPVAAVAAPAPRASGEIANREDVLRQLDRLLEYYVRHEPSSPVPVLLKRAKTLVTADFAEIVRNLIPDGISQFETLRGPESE
The description is as above.

Results are given in words; binding and its absence hold for the method and conditions named. In cells and extracts the contact can be indirect. Here binding means that the protein was enriched with, or labelled near, the bait; the list need not be complete. Sequences can lack the tags named with a protein.

B1: TssB1, Q9I749 1-172 (protein)
chain: MGSTTSSQKFIARNRAPRVQIEYDVELYGAEKKVQLPFVMGVMADLAGKPAEPQAAVADRKFLEIDVDNFDARLKAMKPRVAFNVPNVLTGEGNLSLDITFESMDDFSPAAVARKVDSLNKLLEARTQLANLLTYMDGKTGAEEMIMKAIKDPALLQALASAPKPKDDEPQA
For B1, the binding entry in experiment [1] is listed as “binds”.

B2: TssK1 fused to the adenylate cyclase T25 or T18 subunit (natural protein)
chain: MSWNNRVVWSEGMFLRPQHFQQHDRYLETLVDGRCRSLLAGGWGFSELKLDDALLTQGKLAIVSARGVLPDGTPFNIPADDPAPAPLNVEESLRDGIVYLGLPLKRVGTRDTVEEGEALGGARYVSQVQEVRDDNAAFESRAPVALGSQAFRLLTERDGLGEYAAVGVARVREKRADQALSLDEDYLPPVLDIAAAPPLASFAKELLGLLHQRGEALAGRVVASSAGGASEIADFLLLQLVNRAEALTGHLSRVRPLHPQELYRELVALAGEFCTFTASQRRPEEYPVYNHDDLAASFAPVMLALRQALATVIDAKAIAIPIVEKAYGVHVAMLSDRSLIDNASFVLVVRADVPGESLRGHFPQQAKVGSVEHIRDLVNLQLPGIGLLPMPVAPRQIPYHAGSTYFELDRGSAHWKQLTHSGGFAFHIAGQFPGLNLAFWAIRG
As to B2, in experiment [2], the binding entry is listed as “binds”.
